Results published in paper PMC3009604.
These are yes or no findings as the source states them, for the method shown. Binding seen in cells or lysates may run through a third protein. Here binding means that the protein was enriched with, or labelled near, the bait; the list need not be complete.

The chains behind the UniProt entries cited, without tags or fusion partners. Residues count along the entry.
UniProt P35579: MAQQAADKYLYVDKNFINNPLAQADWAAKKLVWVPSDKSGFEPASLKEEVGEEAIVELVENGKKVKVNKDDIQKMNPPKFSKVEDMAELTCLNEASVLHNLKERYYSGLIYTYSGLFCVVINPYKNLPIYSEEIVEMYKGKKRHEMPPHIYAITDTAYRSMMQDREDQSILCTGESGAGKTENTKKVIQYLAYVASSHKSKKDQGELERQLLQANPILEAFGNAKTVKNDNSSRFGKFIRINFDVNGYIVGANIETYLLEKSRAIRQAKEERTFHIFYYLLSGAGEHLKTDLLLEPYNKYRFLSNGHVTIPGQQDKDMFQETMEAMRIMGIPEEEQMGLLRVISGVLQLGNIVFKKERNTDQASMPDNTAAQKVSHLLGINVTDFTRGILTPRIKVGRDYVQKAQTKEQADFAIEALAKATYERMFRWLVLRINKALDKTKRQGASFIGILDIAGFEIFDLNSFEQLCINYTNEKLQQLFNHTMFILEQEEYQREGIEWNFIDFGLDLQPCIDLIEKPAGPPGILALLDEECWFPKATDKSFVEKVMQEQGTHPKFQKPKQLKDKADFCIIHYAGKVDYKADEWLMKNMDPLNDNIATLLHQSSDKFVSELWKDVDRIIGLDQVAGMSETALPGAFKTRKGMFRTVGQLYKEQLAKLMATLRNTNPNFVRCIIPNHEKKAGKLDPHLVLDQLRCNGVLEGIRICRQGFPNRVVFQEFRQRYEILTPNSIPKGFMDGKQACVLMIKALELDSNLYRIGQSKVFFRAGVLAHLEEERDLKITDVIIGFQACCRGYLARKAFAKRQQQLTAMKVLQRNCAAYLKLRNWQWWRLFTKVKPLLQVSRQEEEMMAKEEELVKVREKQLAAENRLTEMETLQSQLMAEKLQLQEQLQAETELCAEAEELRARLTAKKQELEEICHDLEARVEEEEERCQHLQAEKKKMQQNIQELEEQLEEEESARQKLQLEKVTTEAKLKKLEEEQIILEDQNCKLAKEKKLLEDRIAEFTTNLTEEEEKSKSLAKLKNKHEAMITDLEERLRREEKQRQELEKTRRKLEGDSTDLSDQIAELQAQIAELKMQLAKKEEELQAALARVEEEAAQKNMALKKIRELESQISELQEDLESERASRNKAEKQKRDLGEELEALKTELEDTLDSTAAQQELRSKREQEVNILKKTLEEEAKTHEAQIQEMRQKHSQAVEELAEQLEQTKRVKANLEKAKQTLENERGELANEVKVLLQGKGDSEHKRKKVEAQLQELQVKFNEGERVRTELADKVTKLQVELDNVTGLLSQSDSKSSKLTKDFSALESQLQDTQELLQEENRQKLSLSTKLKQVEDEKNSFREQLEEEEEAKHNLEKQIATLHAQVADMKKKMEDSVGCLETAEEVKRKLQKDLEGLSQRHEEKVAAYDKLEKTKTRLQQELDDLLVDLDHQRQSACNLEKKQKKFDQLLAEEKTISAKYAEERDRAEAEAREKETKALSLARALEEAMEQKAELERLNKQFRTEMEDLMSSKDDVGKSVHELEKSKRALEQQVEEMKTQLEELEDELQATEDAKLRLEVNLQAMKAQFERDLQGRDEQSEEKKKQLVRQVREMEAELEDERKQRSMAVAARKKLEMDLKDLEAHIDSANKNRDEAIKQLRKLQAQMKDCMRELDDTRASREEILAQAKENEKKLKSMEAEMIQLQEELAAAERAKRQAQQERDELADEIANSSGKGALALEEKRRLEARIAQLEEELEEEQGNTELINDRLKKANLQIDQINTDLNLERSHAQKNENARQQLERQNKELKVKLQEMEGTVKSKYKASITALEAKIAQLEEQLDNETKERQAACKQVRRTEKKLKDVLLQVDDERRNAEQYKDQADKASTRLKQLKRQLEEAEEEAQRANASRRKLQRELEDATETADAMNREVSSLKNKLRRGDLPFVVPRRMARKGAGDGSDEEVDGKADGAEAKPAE
UniProt P11021, residues 19-654: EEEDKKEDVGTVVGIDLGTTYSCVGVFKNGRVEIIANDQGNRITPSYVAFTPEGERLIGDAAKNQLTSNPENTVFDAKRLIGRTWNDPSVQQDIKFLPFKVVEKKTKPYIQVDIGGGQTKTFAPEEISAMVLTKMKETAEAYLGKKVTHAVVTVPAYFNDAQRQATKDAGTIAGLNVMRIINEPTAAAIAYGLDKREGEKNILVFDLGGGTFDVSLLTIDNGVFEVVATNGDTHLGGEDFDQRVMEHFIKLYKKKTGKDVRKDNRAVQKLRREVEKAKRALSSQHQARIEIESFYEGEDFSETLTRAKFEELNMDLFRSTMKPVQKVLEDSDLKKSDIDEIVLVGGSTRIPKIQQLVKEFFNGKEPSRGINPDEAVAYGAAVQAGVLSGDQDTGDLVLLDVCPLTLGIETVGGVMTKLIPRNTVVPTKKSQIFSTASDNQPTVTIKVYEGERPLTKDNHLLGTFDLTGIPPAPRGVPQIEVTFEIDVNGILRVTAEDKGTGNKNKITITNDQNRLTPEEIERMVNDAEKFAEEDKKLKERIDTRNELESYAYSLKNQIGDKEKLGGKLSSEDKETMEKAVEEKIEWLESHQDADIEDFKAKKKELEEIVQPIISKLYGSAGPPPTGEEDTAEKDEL

Molecular target: c-Cbl (human (endogenous in HMVEC-d)) (UniProt P22681)
Assay: affinity purification with mass spectrometry; HMVEC-d cells infected with KSHV for 1, 5 and 10 min; lysates immunoprecipitated with anti-c-Cbl antibody, SDS-PAGE, Coomassie blue, bands excised, trypsin digest, mass spectrometry

binding	Substance
binds	non-muscle myosin heavy chain IIA (from UniProt P35579 1-1960)
binds	vimentin (from UniProt P08670 1-466)
binds	BiP protein (from UniProt P11021 19-654)
